Source: patent US20030049732A1
Results are given in words; binding and its absence hold for the method and conditions named. In cells and extracts the contact can be indirect. Some results given as binding are weak or reduced against the parent protein; the word gives no strength.

The chains behind the UniProt entries cited, without tags or fusion partners. Where a name states a change or a piece, a line headed by the entry shows the natural chain unless it says otherwise.
UniProt Q14790: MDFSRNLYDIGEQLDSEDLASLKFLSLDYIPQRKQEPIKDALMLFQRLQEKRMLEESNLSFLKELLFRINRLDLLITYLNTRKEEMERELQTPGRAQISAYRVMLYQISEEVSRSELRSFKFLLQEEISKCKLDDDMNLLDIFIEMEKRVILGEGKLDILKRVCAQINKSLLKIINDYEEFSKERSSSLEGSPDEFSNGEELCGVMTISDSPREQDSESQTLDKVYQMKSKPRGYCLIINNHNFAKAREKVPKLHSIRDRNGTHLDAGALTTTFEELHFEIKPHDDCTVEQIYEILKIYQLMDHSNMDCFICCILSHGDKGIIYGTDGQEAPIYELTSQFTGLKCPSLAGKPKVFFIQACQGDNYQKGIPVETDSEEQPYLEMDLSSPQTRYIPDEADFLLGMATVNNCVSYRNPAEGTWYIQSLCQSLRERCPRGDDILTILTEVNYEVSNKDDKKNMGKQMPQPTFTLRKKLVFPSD
UniProt P29466: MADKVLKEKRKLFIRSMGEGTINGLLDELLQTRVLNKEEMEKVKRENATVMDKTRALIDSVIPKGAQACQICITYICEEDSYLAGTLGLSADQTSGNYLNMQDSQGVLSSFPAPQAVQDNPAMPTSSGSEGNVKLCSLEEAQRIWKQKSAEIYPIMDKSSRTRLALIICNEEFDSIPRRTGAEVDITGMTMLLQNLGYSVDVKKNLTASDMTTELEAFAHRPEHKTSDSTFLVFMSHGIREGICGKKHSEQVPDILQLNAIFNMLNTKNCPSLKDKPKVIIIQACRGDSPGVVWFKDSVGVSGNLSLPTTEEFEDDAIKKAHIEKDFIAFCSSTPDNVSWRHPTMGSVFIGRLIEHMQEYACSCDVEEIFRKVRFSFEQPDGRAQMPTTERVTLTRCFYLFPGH
UniProt Q9Y239: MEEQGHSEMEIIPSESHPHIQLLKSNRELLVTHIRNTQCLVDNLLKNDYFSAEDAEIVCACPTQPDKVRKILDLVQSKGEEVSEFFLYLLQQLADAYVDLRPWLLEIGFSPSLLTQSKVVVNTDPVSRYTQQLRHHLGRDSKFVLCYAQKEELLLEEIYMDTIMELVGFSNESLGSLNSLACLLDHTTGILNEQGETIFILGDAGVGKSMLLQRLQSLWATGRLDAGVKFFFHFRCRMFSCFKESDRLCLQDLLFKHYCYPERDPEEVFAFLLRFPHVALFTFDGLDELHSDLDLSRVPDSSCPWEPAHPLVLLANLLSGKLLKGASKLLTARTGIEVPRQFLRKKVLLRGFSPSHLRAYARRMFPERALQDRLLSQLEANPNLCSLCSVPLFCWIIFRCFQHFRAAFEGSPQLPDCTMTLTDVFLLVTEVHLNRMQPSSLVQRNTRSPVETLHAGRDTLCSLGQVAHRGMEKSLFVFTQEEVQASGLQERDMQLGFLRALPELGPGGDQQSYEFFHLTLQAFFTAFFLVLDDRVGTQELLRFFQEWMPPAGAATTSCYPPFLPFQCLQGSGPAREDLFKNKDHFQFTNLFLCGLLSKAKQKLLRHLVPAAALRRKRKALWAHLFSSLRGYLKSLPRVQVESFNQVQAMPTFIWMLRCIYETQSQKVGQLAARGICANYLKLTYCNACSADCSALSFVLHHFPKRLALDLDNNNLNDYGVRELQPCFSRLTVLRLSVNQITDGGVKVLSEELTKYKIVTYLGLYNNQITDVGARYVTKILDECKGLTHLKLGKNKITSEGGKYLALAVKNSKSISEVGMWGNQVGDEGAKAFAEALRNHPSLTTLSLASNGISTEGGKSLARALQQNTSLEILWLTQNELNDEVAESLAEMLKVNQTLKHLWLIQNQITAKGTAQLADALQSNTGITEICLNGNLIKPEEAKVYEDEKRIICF

Tests used:
Assay in all cases: co-immunoprecipitation, tagged proteins transiently expressed in 293T cells
[1] = target: T1, Caspase-2 (UniProt P42575)
T1 sequence (looked up): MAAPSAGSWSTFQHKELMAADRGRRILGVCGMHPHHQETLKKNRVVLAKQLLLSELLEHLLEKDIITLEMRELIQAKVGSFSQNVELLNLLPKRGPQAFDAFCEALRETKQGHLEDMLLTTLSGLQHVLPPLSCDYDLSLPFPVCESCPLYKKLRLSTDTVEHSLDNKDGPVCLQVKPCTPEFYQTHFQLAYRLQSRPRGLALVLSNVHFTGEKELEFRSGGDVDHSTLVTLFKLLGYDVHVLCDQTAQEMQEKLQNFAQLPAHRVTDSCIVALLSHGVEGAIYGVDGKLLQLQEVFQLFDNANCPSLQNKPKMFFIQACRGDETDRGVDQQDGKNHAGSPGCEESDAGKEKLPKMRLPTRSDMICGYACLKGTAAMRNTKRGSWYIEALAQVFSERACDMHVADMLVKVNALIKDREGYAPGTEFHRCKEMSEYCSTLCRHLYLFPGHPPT

[2] = target: Caspase-8 (UniProt Q14790)
[3] = target: Caspase-1 (UniProt P29466)
[4] = target: T2, ARC (UniProt O60936)
T2 sequence (looked up): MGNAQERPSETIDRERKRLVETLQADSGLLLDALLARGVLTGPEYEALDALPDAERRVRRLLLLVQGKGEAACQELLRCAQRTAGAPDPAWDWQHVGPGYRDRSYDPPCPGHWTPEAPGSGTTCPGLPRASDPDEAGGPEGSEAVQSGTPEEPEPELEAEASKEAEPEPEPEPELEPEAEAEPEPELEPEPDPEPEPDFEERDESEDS

[5] = target: T3, Caspase-4 (UniProt P49662)
T3 sequence (looked up): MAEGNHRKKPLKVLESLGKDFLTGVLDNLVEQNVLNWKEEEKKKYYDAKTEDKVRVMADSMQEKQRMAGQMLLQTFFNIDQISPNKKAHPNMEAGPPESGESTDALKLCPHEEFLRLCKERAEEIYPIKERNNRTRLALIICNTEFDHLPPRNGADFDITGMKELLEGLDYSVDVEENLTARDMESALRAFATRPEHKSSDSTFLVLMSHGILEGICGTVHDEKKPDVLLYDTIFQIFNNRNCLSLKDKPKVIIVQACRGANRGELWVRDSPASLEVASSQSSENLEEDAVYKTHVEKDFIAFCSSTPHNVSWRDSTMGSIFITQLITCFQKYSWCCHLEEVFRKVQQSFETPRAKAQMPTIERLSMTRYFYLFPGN

Measured: binding

Nod1 (from UniProt Q9Y239 1-953)
binds: all assays above
